From paper doi:10.1101/830166
These are yes or no findings as the source states them, for the method shown. Binding seen in cells or lysates may run through a third protein. Some results given as binding are weak or reduced against the parent protein; the word gives no strength. For part of these data: Sequences can lack the tags named with a protein.

Sequences of proteins named here, by UniProt entry; tags and fusion partners are left off. A change or cut given only in a name is not applied to a line headed by its entry. Residues count along the entry.
UniProt P61006: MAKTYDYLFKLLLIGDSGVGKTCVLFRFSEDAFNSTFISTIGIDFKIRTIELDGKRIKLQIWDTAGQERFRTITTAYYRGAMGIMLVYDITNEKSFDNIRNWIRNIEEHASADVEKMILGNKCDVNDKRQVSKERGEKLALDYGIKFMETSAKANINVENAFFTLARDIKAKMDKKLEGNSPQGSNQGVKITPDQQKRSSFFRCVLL
UniProt Q5IJ48: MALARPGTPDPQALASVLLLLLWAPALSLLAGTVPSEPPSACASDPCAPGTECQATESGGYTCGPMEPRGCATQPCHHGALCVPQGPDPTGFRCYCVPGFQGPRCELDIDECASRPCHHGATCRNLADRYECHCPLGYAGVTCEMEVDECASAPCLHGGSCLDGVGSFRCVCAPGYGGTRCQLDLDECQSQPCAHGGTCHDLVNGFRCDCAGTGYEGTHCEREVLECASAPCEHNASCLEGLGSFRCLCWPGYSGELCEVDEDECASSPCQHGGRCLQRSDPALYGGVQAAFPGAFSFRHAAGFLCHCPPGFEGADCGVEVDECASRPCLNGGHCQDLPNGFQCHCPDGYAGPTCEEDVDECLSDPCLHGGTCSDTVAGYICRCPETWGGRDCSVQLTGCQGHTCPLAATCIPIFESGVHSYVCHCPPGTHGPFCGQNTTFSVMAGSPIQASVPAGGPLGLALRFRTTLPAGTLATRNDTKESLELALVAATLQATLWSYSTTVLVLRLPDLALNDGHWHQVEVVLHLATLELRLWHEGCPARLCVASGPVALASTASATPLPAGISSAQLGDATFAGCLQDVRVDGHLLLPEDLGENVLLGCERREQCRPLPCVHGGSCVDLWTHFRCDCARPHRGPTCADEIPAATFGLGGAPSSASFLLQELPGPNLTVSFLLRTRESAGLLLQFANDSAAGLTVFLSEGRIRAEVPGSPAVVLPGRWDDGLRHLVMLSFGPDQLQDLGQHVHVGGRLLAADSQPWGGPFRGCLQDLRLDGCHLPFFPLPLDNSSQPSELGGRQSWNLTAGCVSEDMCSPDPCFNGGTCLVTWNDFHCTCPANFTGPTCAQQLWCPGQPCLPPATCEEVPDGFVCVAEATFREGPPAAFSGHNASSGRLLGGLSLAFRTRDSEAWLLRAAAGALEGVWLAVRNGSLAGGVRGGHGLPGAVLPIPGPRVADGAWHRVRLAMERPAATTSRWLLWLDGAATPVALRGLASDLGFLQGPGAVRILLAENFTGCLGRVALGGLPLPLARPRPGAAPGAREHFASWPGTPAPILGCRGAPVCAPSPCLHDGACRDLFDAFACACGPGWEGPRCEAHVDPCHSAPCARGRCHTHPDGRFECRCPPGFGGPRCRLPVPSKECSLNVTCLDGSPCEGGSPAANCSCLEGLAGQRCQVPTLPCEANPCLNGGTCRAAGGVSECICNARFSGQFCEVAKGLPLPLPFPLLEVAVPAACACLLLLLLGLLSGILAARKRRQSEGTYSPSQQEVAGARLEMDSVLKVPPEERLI
biotinylated peptide mimicking the cytoplasmic part of CRB2 (CRB2 cyt: amino-acids 1249 to 1285): residues 1249-1285 of Q5IJ48

How the values were obtained:
human GFP∷RAB8A (human) = human GFP∷RAB8A (human) (UniProt P61006); test: co-IP
[1] = target: biotinylated peptide mimicking the cytoplasmic part of CRB2 (CRB2 cyt: amino-acids 1249 to 1285) (human) (UniProt Q5IJ48); test: pull-down

| binding (human GFP∷RAB8A (human)) | binding [1] | Molecule |
| --- | --- | --- |
| binds weakly |  | AU1∷CRB2 (from UniProt Q5IJ48 29-1285) |
|  | binds | PALS1 (Protein Associated with Lin Seven) (protein, UniProt Q8N3R9 1-675) MTTSHMNGHVTEESDSEVKNVDLASPEEHQKHREMAVDCPGDLGTRMMPIRRSAQLERIRQQQEDMRRRREEEGKKQELDLNSSMRLKKLAQIPPKTGIDNPMFDTEEGIVLESPHYAVKILEIEDLFSSLKHIQHTLVDSQSQEDISLLLQLVQNKDFQNAFKIHNAITVHMNKASPPFPLISNAQDLAQEVQTVLKPVHHKEGQELTALLNTPHIQALLLAHDKVAEQEMQLEPITDERVYESIGQYGGETVKIVRIEKARDIPLGATVRNEMDSVIISRIVKGGAAEKSGLLHEGDEVLEINGIEIRGKDVNEVFDLLSDMHGTLTFVLIPSQQIKPPPAKETVIHVKAHFDYDPSDDPYVPCRELGLSFQKGDILHVISQEDPNWWQAYREGDEDNQPLAGLVPGKSFQQQREAMKQTIEEDKEPEKSGKLWCAKKNKKKRKKVLYNANKNDDYDNEEILTYEEMSLYHQPANRKRPIILIGPQNCGQNELRQRLMNKEKDRFASAVPHTTRSRRDQEVAGRDYHFVSRQAFEADIAAGKFIEHGEFEKNLYGTSIDSVRQVINSGKICLLSLRTQSLKTLRNSDLKPYIIFIAPPSQERLRALLAKEGKNPKPEELREIIEKTREMEQNNGHYFDTAIVNSDLDKAYQELLRLINKLDTEPQWVPSTWLR |
|  | binds | HA∷PAR6α (protein, UniProt Q9NPB6 1-346) MARPQRTPARSPDSIVEVKSKFDAEFRRFALPRASVSGFQEFSRLLRAVHQIPGLDVLLGYTDAHGDLLPLTNDDSLHRALASGPPPLRLLVQKRAEADSSGLAFASNSLQRRKKGLLLRPVAPLRTRPPLLISLPQDFRQVSSVIDVDLLPETHRRVRLHKHGSDRPLGFYIRDGMSVRVAPQGLERVPGIFISRLVRGGLAESTGLLAVSDEILEVNGIEVAGKTLDQVTDMMVANSHNLIVTVKPANQRNNVVRGASGRLTGPPSAGPGPAEPDSDDDSSDLVIENRQPPSSNGLSQGPPCWDLHPGCRHPGTRSSLPSLDDQEQASSGWGSRIRGDGSGFSL |
